# Results as given in PubChem BioAssay AID504834 (National Center for Advancing Translational Sciences (NCATS), 2011).
# The campaign covered roughly 320,000 compounds. About 22,000 (6.9%) were called active. Inconclusive results, whose numbers are uncertain, are shown with a selection of clear calls. Calls follow the shape of the dose curve; as a rule, active = well fitted inhibition curve with a large enough effect; inconclusive = small, poorly fitted or top-dose-only effect, or another doubt; inactive = no such curve, though single readings can be large or run the other way. A potency beside an inconclusive call is a rough fit, not a confirmed value.
# Test: Primary qHTS for delayed death inhibitors of the malarial parasite plastid, 96 hour incubation
# Conditions: P. falciparum luciferase reporter growth; series mostly up to 28.7 µM; activity change, negative = inhibition: at the top concentration
# Method in brief: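 Compounds incubated with erythrocytes infected by luciferase-expressing P. falciparum (2% hematocrit, 0.05% parasitemia final) for 96 hours, 37 C in 5% CO2. Growth inhibition scored as decreased luciferase luminescence.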
# % is scaled to controls: 0 for no effect and ±100 for the full control effect; potency is read from the fitted curve at half-maximal effect.
Compound,"activity change, negative = inhibition",Potency
CCCC1=Nc2cc(C(=O)NCCN3CCOCC3)ccc2Sc2ccc(C)cc21,inactive: -23.7%,
Cc1cc(C)nc(SCC(=O)c2ccc(F)cc2F)n1,inactive: 15.4%,
CCOc1cccc(CN2CCN(CCCc3ccccc3)C(CCO)C2)c1O (centres undefined),,"inconclusive: 18.5 µM [inhibitor, single point]"
COc1ccc(/C=N/Nc2nonc2N)cc1,inactive: 64.1%,
O=C(O)/C=C/C(=O)NC1CC1,,"inconclusive: 2.94 µM [inhibitor, partial curve, poor fit]"
CCOc1ccc(S(=O)(=O)N(C)C)cc1-c1nc2c(C(C)(C)C)nn(C)c2c(=O)[nH]1,,"inconclusive: 18.5 µM [inhibitor, single point]"
CN1CCN(C(=O)c2cc([N+](=O)[O-])cc([N+](=O)[O-])c2)CC1,,"inconclusive: 18.5 µM [inhibitor, single point]"
COc1ccc(OC)c2[nH]c(=O)c(CCNC(=O)COc3ccccc3)cc12,,"inconclusive: 0.147 µM [inhibitor, full curve]"
CCOc1ccc(NC(=S)NNc2ccnc3cc(Cl)ccc23)cc1,,active: 2.08 µM
O=C(NCC1CCCO1)c1cc(-c2ccc(Cl)cc2Cl)on1 (centres undefined),inactive: 226%,
O=C(CSc1nc2nn(-c3ccccc3)c(=O)c-2c2n1CCCCC2)Nc1ccccc1[N+](=O)[O-],,active: 6.57 µM
Cc1ccsc1C(=O)NCCc1ccc(S(N)(=O)=O)cc1,inactive: -3.76%,
CCOc1ccc(NC(=O)CSc2nnc(C)n2CC)cc1,inactive: -6.58%,
COCCn1c(C)cc(C(=O)CSc2ncn[nH]2)c1C,inactive: 2.09% [at 5.75 µM],
O=C(Cn1cnc2c(oc3nc4c(cc32)CCCC4)c1=O)Nc1ccccc1,,"inconclusive: 18.5 µM [inhibitor, single point]"
CC(C)=CCN1CCN(Cc2cc3ccccc3[nH]2)CC1CCO (centres undefined),,"inconclusive: 11.7 µM [inhibitor, single point]"
CCc1cccc(Nc2c([N+](=O)[O-])cc(C(=O)N3CC(=O)Nc4ccccc43)cc2[N+](=O)[O-])c1,,"inconclusive: 5.22 µM [inhibitor, partial curve, poor fit]"
Cc1nnc(NC(=O)NC(C)N2C(=O)C3C4C=CC(C4)C3C2=O)s1 (centres undefined),inactive: -25.8%,
Cn1c(CNC(=O)CNS(=O)(=O)c2ccc(Br)cc2)cc(=O)n(C)c1=O,inactive: -2.4%,
CCCCN1c2ccccc2N(CCCO)c2cc(C)nnc21,,"inconclusive: 11.7 µM [inhibitor, single point]"
CN1C(=O)CC(N2CCC(C(N)=O)(N3CCCCC3)CC2)C1=O (centres undefined),inactive: 9.89%,
CCc1ccc(CNC(=O)C2CCN(c3nnc(C)c4c(C)n(-c5ccc(C)cc5)nc34)CC2)cc1,,"inconclusive: 18.5 µM [inhibitor, single point]"
CCOC(=O)C(C)Oc1ccc(=O)n(-c2ccccc2)n1 (centres undefined),,active: 1.85 µM

Compound,"activity change, negative = inhibition",Potency
CCC(C)NC(=O)CSc1nc2cc3c(cc2c(=O)n1Cc1ccco1)OCO3 (centres undefined),,"inconclusive: 18.5 µM [inhibitor, single point]"
NC(N)=N/N=C/c1ccc(OCc2ccc(Cl)cc2)cc1,,active: 2.33 µM
Cc1ccc2nc(Nc3nc(CSc4nnnn4-c4ccccc4)cc(=O)[nH]3)nc(C)c2c1,inactive: 49.7%,
COC(=O)c1cc(S(=O)(=O)N(C)C2CCCCC2)cn1C,,"inconclusive: 9.28 µM [inhibitor, partial curve]"
Cc1cccc(OCC(=O)Nc2ccc(NC(=O)c3ccccc3)cc2)c1,,"inconclusive: 6.57 µM [inhibitor, partial curve, poor fit]"
COC(=O)c1noc(C)c1-c1ccnn1C(=O)c1ccc(Cl)cc1,,"inconclusive: 18.5 µM [inhibitor, single point]"
CN1CCN(CCCN(Cc2ccco2)C(=S)Nc2ccc(Cl)cc2)CC1,,"inconclusive: 13.1 µM [inhibitor, single point]"
C[C@@H]1NC(=O)[C@@]2(C)[C@@H](c3ccccc3)[C@H]3COc4ccccc4[C@@H]3N2C1=O,,"inconclusive: 5.22 µM [inhibitor, single point]"
CN(C)CCCNCCCNC(=O)c1ccncc1,,"inconclusive: 0.0041 µM [inhibitor, full curve, poor fit]"
CC(C)c1cc(C(=O)N2CCCC(CCC(=O)N3CCN(c4ccccn4)CC3)C2)no1 (centres undefined),,"inconclusive: 18.5 µM [inhibitor, single point]"
CC(=O)c1c(C)[nH]c(C(=O)OC(C)C(=O)Nc2cc(S(=O)(=O)N3CCCCC3)ccc2Cl)c1C (centres undefined),inactive: -20.4%,
Cc1nnsc1S(=O)c1ccc(Br)cc1 (centres undefined),,"inconclusive: 0.586 µM [inhibitor, full curve, poor fit]"
Cc1ccc(C(C(=O)NC(C)(C)C)N(C(=O)CCC(=O)Nc2ccccn2)c2ccccc2F)cc1 (centres undefined),,"inconclusive: 13.1 µM [inhibitor, partial curve, poor fit]"
CC(C)(C)S(=O)(=O)c1ccsc1C(=O)O,,"inconclusive: 8.28 µM [inhibitor, partial curve, poor fit]"
Cc1cccc(C)c1Nc1nnc(SCC(=O)Nc2cc(S(=O)(=O)N3CCCCC3)ccc2Cl)s1,,"inconclusive: 1.85 µM [inhibitor, full curve, poor fit]"
CCN(CC)S(=O)(=O)c1cc(-c2nnc(-c3ccc(Br)cc3)o2)ccc1Cl,,active: 3.29 µM
Cc1cccc(N2CCN(C(=O)C3CCC(CNS(=O)(=O)c4cccs4)CC3)CC2)c1C (centres undefined),inactive: -2.97%,
COC(=O)/C(=C1/Oc2cc3c(cc2S1)OCO3)C(F)(F)F,inactive: 2.52%,
Fc1ccc(C[n+]2c(-c3ccccc3)cc(-c3ccccc3)cc2-c2ccccc2)cc1,,active: 0.37 µM
Cc1cccc(C(=O)NC(=S)N2CCN(C)CC2)c1,,"inconclusive: 16.5 µM [inhibitor, partial curve, poor fit]"
COc1ccc(OC)c(C2=NOC(C(=O)Nc3ccccc3SC)C2)c1 (centres undefined),,"inconclusive: 9.28 µM [inhibitor, single point]"
COc1ccccc1N1CCN(C(=O)c2ccc(CS(=O)(=O)c3ccccc3OC)o2)CC1,,active: 9.28 µM
COc1cccc(NC(=O)CN(C)C(=O)c2ccc(S(=O)(=O)Nc3ccccc3C)cc2)c1,,"inconclusive: 9.28 µM [inhibitor, partial curve, poor fit]"

# Some of the entries so far, as tab-separated lines:
Compound	activity change, negative = inhibition	Potency
Cc1cccc(C)c1Nc1nnc(SCC(=O)Nc2cc(S(=O)(=O)N3CCCCC3)ccc2Cl)s1		inconclusive: 1.85 µM [inhibitor, full curve, poor fit]
COC(=O)/C(=C1/Oc2cc3c(cc2S1)OCO3)C(F)(F)F	inactive: 2.52%	
COc1ccccc1N1CCN(C(=O)c2ccc(CS(=O)(=O)c3ccccc3OC)o2)CC1		active: 9.28 µM
COc1cccc(NC(=O)CN(C)C(=O)c2ccc(S(=O)(=O)Nc3ccccc3C)cc2)c1		inconclusive: 9.28 µM [inhibitor, partial curve, poor fit]

# (list continues)

Compound,"activity change, negative = inhibition",Potency
CCOCCCn1c(=NC(C)=O)c(C#N)cc2c(=O)n3ccccc3nc21,inactive: 4.08%,
O=C(c1cn(-c2ccccc2)nc1-c1cccc([N+](=O)[O-])c1)N1CCCCC1,inactive: 22.9%,
Cc1cc(OCC(=O)O/N=C(\N)c2ccccc2)ccc1Cl,,"inconclusive: 14.7 µM [inhibitor, single point]"
CNC(=O)C1CC(=O)N(Cc2ccc3c(c2)OCO3)C(=Nc2ccc(OC)cc2)S1 (centres undefined),,"inconclusive: 3.7 µM [inhibitor, partial curve, poor fit]"
Cc1ccc(C2=NCCn3c2c2ccc([N+](=O)[O-])cc2[n+]3[O-])cc1,,"inconclusive: 11.7 µM [inhibitor, single point]"
CCOC(=O)CCCCNC(=O)Nc1ccccc1,,"inconclusive: 16.5 µM [inhibitor, single point]"
Cc1ccc(S(=O)(=O)N2CCOCC2)cc1NC(=O)CSc1ccc(Cl)cc1,inactive: -1.26%,
Cn1c(-c2ccccc2)cc2c3no[n+]([O-])c3ccc21,inactive: 53.1%,
O=C(COc1ccc(F)cc1)N1c2ccccc2CCc2ccccc21,,"inconclusive: 2.33 µM [inhibitor, partial curve, poor fit]"
O=C(O)CCC(=O)N1N=C(c2c(-c3ccccc3)c3cc(Cl)ccc3[nH]c2=O)CC1c1ccccc1 (centres undefined),,"inconclusive: 4.15 µM [inhibitor, partial curve]"
CN(C)C(CNC(C(=O)Nc1ccc([N+](=O)[O-])cc1Br)c1ccccc1)c1ccccc1 (centres undefined),,"inconclusive: 18.5 µM [inhibitor, single point]"
COC(=O)[C@@]1(Cc2ccc(OC)cc2)[C@H]2c3cc(C(=O)N(C)C)n(CCc4ccc(OC)c(Br)c4)c3C[C@H]2CN1C(=O)c1ccccc1,,active: 2.08 µM
CC1CCCCC1NC(=O)Cn1cc([N+](=O)[O-])ccc1=O (centres undefined),inactive: -12.4%,
Cc1cccc(C)c1-n1nnnc1C(C)(C)N1CCN(N=O)CC1,,"inconclusive: 10.4 µM [inhibitor, single point]"
COC(=O)c1ccc(C2OCC(C)(C)CO2)cc1,,"inconclusive: 4.65 µM [inhibitor, partial curve, poor fit]"
Cc1ccc(S(=O)(=O)c2ncccc2N)cc1,inactive: -1.54%,
CCOC(=O)C(C)Sc1nc2ccccc2c(=O)n1CC1CCCCC1 (centres undefined),,active: 11.7 µM
O=C(O)C1CCN(c2nc(-c3ccccc3)nc3c2oc2ccccc23)CC1,,active: 11.7 µM
Cc1csc2nc(O)c(C(=O)NC3CCCCCC3)c(=O)n12,,"inconclusive: 6.57 µM [inhibitor, partial curve]"
CCOc1cc(C(=O)OCC(=O)c2c(N)n(C)c(=O)n(C)c2=O)cc(OCC)c1OCC,,"inconclusive: 4.15 µM [inhibitor, full curve, poor fit]"
CC(Oc1ccc(C(C)(C)C)cc1)C(=O)NCC(c1ccco1)N1CCCC1 (centres undefined),,"inconclusive: 18.5 µM [inhibitor, single point]"
CC(=O)N1C(C(=O)O)Cc2c([nH]c3ccccc23)C1C (centres undefined),,"inconclusive: 0.465 µM [inhibitor, full curve, poor fit]"
COc1ccc(N2CCN(C3CCCN(Cc4cccc(OC)c4)C3)CC2)cc1 (centres undefined),,"inconclusive: 18.5 µM [inhibitor, single point]"
